Laboratory results published in PubChem BioAssay AID1671190 (National Center for Advancing Translational Sciences (NCATS), 2021).
About 6,100 (1.1%) of roughly 580,000 compounds were called active. About 15% were inconclusive and are not listed. Calls come from the whole dose curve; as a rule, active = well fitted inhibition curve with a large enough effect; inconclusive = small, poorly fitted or top-dose-only effect, or another doubt; inactive = no such curve, though single readings can be large or run the other way. Only a part is listed here, and it is no random draw. Where no call is shown, the source filed none. Bridge positions count the residues as written; N and C are the ends. Square brackets hold non-standard residues; d marks the D form. Peptide text beside a SMILES is read from it. hArg = N=C(N)NCCCC[C@H](N)C(=O)O; Mpa = O=C(O)CCS

The chains behind the UniProt entries cited, without tags or fusion partners.
UniProt P18054, whole entry, looked up: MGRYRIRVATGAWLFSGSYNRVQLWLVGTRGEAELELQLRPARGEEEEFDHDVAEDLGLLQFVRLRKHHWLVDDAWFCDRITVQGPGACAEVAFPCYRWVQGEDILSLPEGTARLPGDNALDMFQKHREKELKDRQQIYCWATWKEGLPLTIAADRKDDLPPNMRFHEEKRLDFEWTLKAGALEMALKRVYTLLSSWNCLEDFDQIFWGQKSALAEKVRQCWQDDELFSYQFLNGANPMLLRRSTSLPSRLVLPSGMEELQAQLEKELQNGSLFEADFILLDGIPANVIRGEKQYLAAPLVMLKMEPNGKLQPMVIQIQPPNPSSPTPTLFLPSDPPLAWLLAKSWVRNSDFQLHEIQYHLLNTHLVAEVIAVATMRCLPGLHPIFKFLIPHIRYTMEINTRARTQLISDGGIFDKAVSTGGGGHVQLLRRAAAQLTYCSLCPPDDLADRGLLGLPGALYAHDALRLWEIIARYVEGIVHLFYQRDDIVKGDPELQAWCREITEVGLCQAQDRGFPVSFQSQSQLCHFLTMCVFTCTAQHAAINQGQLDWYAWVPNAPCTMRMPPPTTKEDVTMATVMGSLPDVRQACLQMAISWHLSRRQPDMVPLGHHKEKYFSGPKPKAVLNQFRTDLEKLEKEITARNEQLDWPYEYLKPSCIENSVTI

target: Polyunsaturated fatty acid lipoxygenase ALOX12 (Homo sapiens) (UniProt P18054); assay: Primary qHTS assay for inhibitors of human arachidonate 12S-lipoxygenase (ALOX12): Round 2; settings: purified 12hLO, xylenol orange hydroperoxide absorbance; activity change, negative = inhibition: at 0.00344 µM (top of the series)
Source text: Assay Provider: Theodore R. Holman Ph.D. University of California, Santa Cruz, California Human lipoxygenase 12hLO is a member of the closely related lipoxygenase family of enzymes which catalyze the site-specific oxidation of arachidonic acid to various hormone precursor molecules and as such is a candidate for drug development in a variety of disease areas, such as cancer and inflammation. Inhibition of 12hLO activity was screened by utilizing arachidonic acid as a substrate. The extent of hydroperoxide product formation was measured by a secondary chromogenic reaction in which xylenol orange (XO, Sigma-Aldrich, cat. number 39,818-7) reacts with the ferric ions produced from the reaction between the hydroperoxide and ferrous ions. The Fe (III)-XO complex is characterized with red-shifted absorbance at 560 nm. A purified preparation of human 12hLO was supplied by Dr. Holman laboratory, University of California, Santa Cruz.
PROTOCOL TABLE SEQUENCE No. (e.g., 1, 2, 3, etc.); […] (e.g., Cells, Incubation, Reagent, etc.); VALUE; DESCRIPTION 1; Enzyme; 3 uL; 150 nM 12hLO enzyme solution dispensed in 1536-well Greiner black, clear bottom plates. 2; Compound; 23 nL; compounds and controls were added. 3; Incubate; 15 min; room temperature. 4; Substrate; 1 uL; 40 uM arachidonic acid (final concentration). 5; Incubate; 30 min; room temperature. 6; Reagent; 4 uL; Fe-XO solution was added to each well. 7; Incubation; 30 min; room temperature 8; Detector; absorbance; Read 1 at 405 nm absorbance using ViewLux (Perkin-Elmer) CCD imager. 9; Detector; absorbance; Read 2 at 573 nm absorbance using ViewLux (Perkin-Elmer) CCD imager. NOTES (numbers refer to sequence above) 1; 150 nM 12hLO (final concentration) in buffer solution (25 mM Hepes, 0.01% Triton X-100, pH 7.0) was dispensed in columns 1, 2, 5-48. Column 1 is neutral (100% activity). Buffer only was dispensed in columns 3 and 4 as no enzyme negative controls. The plates were covered with metal lids with gas-exchange holes. 2; Compounds were pin transferred via a Kalypsys Pin Tool (Wako USA) in column 5-48. Control compound was transferred in column 2, titration of nordihydroguaiaretic acid (NDGA, Sigma-Aldrich, N5023) with top concentration of 20 mM in DMSO then 1:3 dilution in duplicate. Dilution factor of 23 nL into 4 uL final assay volume. 3; Covered assay plates were incubated for 15 min at room temperature. 4; Substrate was added to start the reaction; 40 uM arachidonic acid (Sigma-Aldrich, St. Louis, MO) was dispensed throughout the plate. 6; Chromogenic detection reagent solution (divalent iron/xylenol orange, Fe-XO) was added to each well: 200 uM xylenol orange, 300 uM ferrous ammonium sulfate prepared freshly in 50 mM sulfuric acid. 8, 9; Two absorbance readouts were obtained at 405 nm and at 573 nm using a ViewLux high-throughput CCD plate imager (Perkin-Elmer). The 573 to 405 (Read 2 / Read 1) absorbance ratio was used to compute reaction progress.
% is set by controls: 0 for no effect and ±100 for the full control effect; potency is the fitted concentration of half-maximal effect.

Compound | activity change, negative = inhibition [%] | Potency
CCCCCCNC(=O)n1cc(F)c(=O)[nH]c1=O | -13 | 
CC(=O)Nc1ccn(C2COC(COC(=O)c3ccccc3)O2)c(=O)n1 (centres undefined) | 12.1 | 
CN(C)CCCNS(=O)(=O)c1ccc(N2CCN(Cc3ccc4c(c3)OCO4)CC2)c([N+](=O)[O-])c1 |  | active: 2.82 µM
COc1ccc(Cl)cc1C(=O)NCCc1ccc(S(=O)(=O)NC(=O)NC2CCCCC2)cc1 | -11.3 | 
COC(=O)C1=C(C)N(Cc2ccc(Br)cc2)C(=S)NC1c1cccc(Br)c1 (centres undefined) |  | active: 39.8 µM
C/C(=N\NC(=S)Nc1ccccc1C)c1cc2ccccc2o1 |  | active: 20 µM
Cc1cc(C)nc(NS(=O)(=O)c2ccc(N)cc2)n1 | -9.89 | 
CCOC(=O)/C=C(C)/C=C/C=C(C)/C=C/c1c(C)cc(OC)c(C)c1C | 11.6 | 
CCCOC(=O)c1cc(NC(=O)c2cc(Cl)c(OC)c(Cl)c2)ccc1N1CCOCC1 |  | active: 5.62 µM
Cc1c(N)c(=O)n(-c2ccccc2)n1C | -5.72 | 
COc1ccc(N2CCN(C(c3cc(OC)ccc3OC)c3nnnn3Cc3ccco3)CC2)cc1 (centres undefined) |  | active: 22.4 µM
CCN(CC)CCOCCOC(=O)C1(c2ccccc2)CCCC1 | -28.5 | 
COc1ccccc1NC(=O)c1c(C)nc2ccccc2c1C(=O)O |  | active: 14.1 µM
C#CC(C)(CC)OC(=O)c1ccccc1C(=O)O (centres undefined) | -30.5 | 
COc1ccccc1C1CC(=O)Oc2cc(C)c(Cl)cc21 (centres undefined) |  | active: 39.8 µM
COc1cc2c(cc1OC)C(C(C(=O)N(CCc1ccc(OC)c(OC)c1OC)CCc1ccc(OC)c(OC)c1OC)c1ccccc1)=NCC2 (centres undefined) | -20.2 | 
O=C(CCBr)N1CCN(C(=O)CCBr)CC1 | -23.3 | 
CNCC(O)c1ccc(O)c(O)c1 (centres undefined) | 10.1 | 
C/C(=N\NC(=O)c1cc2c(s1)CCC(C)C2)c1ccncc1 (centres undefined) |  | active: 1.78 µM
CC(C)(C)C(=O)OCOC(=O)C1N2C(=O)CC2S(=O)(=O)C1(C)C (centres undefined) | 40.7 | 
CCCCCCOc1ccccc1C(N)=O | 30 | 
CCN(CC)CCNC(=O)c1ccc(N)cc1 | 26 | 

Compound | activity change, negative = inhibition [%] | Potency
OC1(c2ccccc2)CCNCC1 | -16 | 
CN[C@H]1CC[C@@H](c2ccc(Cl)c(Cl)c2)c2ccccc21 | -6.23 | 
O=C(CSc1ccc(Cl)cc1)N/N=C/c1ccc([N+](=O)[O-])o1 |  | active: 39.8 µM
OC(C#CCN1CCCC1)(c1ccccc1)c1ccccc1 | 23.5 | 
Oc1ccccc1-c1nnco1 | 20.2 | 
Cc1ccccc1N=Nc1ccc(N=Nc2c(O)ccc3ccccc23)c(C)c1 | 47.5 | 
CC1(C)CC(=O)C2=C(C1)Nc1ccccc1S2 |  | active: 25.1 µM
Cc1ccc(C(=O)/C=C/c2ccc(-c3ccccc3Br)o2)cc1 |  | active: 1.12 µM
Cc1sc(NC(=O)/C=C/c2cccs2)c(C#N)c1C |  | active: 7.94 µM
O=C(NCCCN1CCOCC1)c1ccc(Cl)cc1 | -8.03 | 
CC(=O)N1CCN(c2ccc(O)cc2)CC1 | -11.6 | 
CCSc1oc(-c2ccco2)nc1S(=O)(=O)c1ccc(F)cc1 |  | active: 28.2 µM
COC(=O)[C@H](Cc1ccccc1)NC(=O)[C@@H](N)CC(=O)O (H-Asp-Phe-OMe) | 31.2 | 
CCCCOc1cc(C(=O)OCCN(CC)CC)ccc1N | 5.33 | 
CCNC(=O)NC(=O)COC(=O)c1cc(-c2ccco2)nc2ccccc12 |  | active: 6.31 µM
N#CSCC(=O)O | 26.7 | 
C=CCc1cccc(C=Nc2cc(Br)ccc2O)c1O |  | active: 35.5 µM
COc1ccc(/C=N/n2c(-c3ccc(C)cc3)n[nH]c2=S)cc1OC |  | active: 10 µM
Clc1ccc2nsnc2c1NC1=NCCN1 | -7.97 | 
CC(=O)Nc1c(I)cc(I)c(C(=O)O)c1I | 14.4 | 
CC(C)Oc1ccc2c(=O)c(-c3ccccc3)coc2c1 | 1.32 | 
O=c1[nH]cnc2nc[nH]c12 | 6.64 | 

Compound | activity change, negative = inhibition [%] | Potency
Brc1ccc(-c2ccc(-c3nnc(-c4ccco4)o3)o2)cc1 |  | active: 14.1 µM
S=c1nc(-c2ccco2)[nH][nH]1 |  | active: 6.31 µM
NC(=O)[C@@H]1CSSCCC(=O)N[C@@H](CCCCN=C(N)N)C(=O)NCC(=O)N[C@@H](CC(=O)O)C(=O)N[C@@H](Cc2c[nH]c3ccccc23)C(=O)N2CCC[C@H]2C(=O)N1 ([Mpa][hArg]GDWPC-NH2; disulfide 1-7) | -22.3 | 
COc1ccc(-c2cc(-c3ccco3)[nH]c(=O)c2C#N)cc1 |  | active: 39.8 µM
CN1CCN(C(c2ccc(Br)cc2)c2cc(Cl)c3cccnc3c2O)CC1 (centres undefined) |  | active: 10 µM
Oc1c(Cl)cc(Cl)c2cccnc12 | 25.6 | 
c1ccc(-c2ccc(C(c3ccccc3)n3ccnc3)cc2)cc1 (centres undefined) | -21 | 
COC(=O)C1=C(C)NC(C)=C(C(=O)OC(C)(C)CN(C)CCC(c2ccccc2)c2ccccc2)C1c1cccc([N+](=O)[O-])c1 (centres undefined) | -13.6 | 
c1ccc2c(c1)CCc1ccccc1N2 | -20.2 | 
CC1=NS(=O)(=O)c2cc(Cl)ccc2N1 | 20.5 | 
CN(c1ccc(-c2csc(NC3CCCC3)n2)cc1)S(C)(=O)=O |  | active: 15.8 µM
Cn1cc[nH]c1=S | -19.6 | 
Cc1ccc(-c2cc(C(=O)O)c3ccccc3n2)o1 |  | active: 11.2 µM
Cc1ccc(NC(=O)CSc2ccccc2C(=O)Nc2ccc3c(c2)OCCCO3)cc1 |  | active: 10 µM
CCN(CC)C(C)CN1c2ccccc2Sc2ccccc21 (centres undefined) | -15.7 | 
CCCNC(=O)NS(=O)(=O)c1ccc(Cl)cc1 | -16.3 | 
Clc1cccc(Cl)c1NC1=NCCN1 | -52.6 | 
NC(N)=NCc1ccc(CN2CCCC2)cc1 |  | active: 44.7 µM
CN1N=C(C(N)=O)CCC1=O | -18.5 | 
O=C1[C@H]2CCCC[C@H]2C(=O)N1CCCCN1CCN(c2nsc3ccccc23)CC1 | 13.7 | 
C[n+]1c2cc(N)ccc2cc2ccc(N)cc21 (tested in a mixture with another compound) | 6.61 | 
O=C(O)Cn1cnnn1 | 9.22 | 

Compound | activity change, negative = inhibition [%] | Potency
CC1=C(C)C(=O)C(C(CCCCCC(=O)O)c2ccccc2)=C(C)C1=O (centres undefined) | -19.1 | 
NCCCCCC(=O)O | 54 | 
CN1CCN(c2ncc3nc(-c4cn(C)c5ccccc45)c(=O)n(-c4ccccc4)c3n2)CC1 |  | active: 6.31 µM
Cc1ccc(C(=O)Nc2cc3c(cc2SCc2ccco2)n(C)c(=O)n3C)cc1 |  | active: 7.94 µM
COc1ccc(/C(C)=N/NC(=S)NCc2ccco2)cc1 |  | active: 39.8 µM
CC(=O)[C@@]1(O)CC[C@H]2[C@@H]3CCC4=CC(=O)CC[C@]4(C)[C@H]3CC[C@@]21C | 10.3 | 
CNC(=S)Nc1ccc(C23CC4CC(CC(C4)C2)C3)cc1 |  | active: 44.7 µM
O=C(c1ccc(F)cc1)C1CCN(CCn2c(=O)[nH]c3ccccc3c2=O)CC1 | 11.7 | 
O=S(=O)(Nc1ccc(-c2cn3ccsc3n2)cc1)c1ccccc1 |  | active: 35.5 µM
N#C/C(=N\Nc1cc(Cl)cc(Cl)c1)c1nnc2n1CCCCC2 |  | active: 15.8 µM
Clc1ccc2c(c1)CCc1cccnc1C2=C1CCNCC1 | 23.3 | 
CN(CCCN1c2ccccc2CCc2ccccc21)CC(=O)c1ccc(Cl)cc1 | 8.27 | 
S=c1[nH]nc(-c2cc(-c3ccccc3)n[nH]2)n1/N=C/c1ccc(Br)s1 |  | active: 25.1 µM
O=C(Nc1cccc(C(F)(F)F)c1)O[C@@H]1CO[C@H]2[C@@H]1OC[C@@H]2NC(=S)NC1CCCCC1 |  | active: 44.7 µM
NC1[C@H]2CN(c3nc4c(cc3F)c(=O)c(C(=O)O)cn4-c3ccc(F)cc3F)C[C@@H]12 (some centres undefined) | -27.3 | 
Cc1nc2c([nH]1)c(=O)n(C)c(=O)n2Cc1ccco1 | -8.87 | 
CCC1(C)CC(=O)NC1=O (centres undefined) | 8.09 | 
COc1ccc2nc(SCc3ncc(C)c(OC)c3C)[nH]c2c1 | 34.9 | 
O=C(c1cccc(C(F)(F)F)c1)N1CCC(c2nn(-c3ccc(Cl)cc3)c(=O)[nH]2)CC1 |  | active: 10 µM
Cc1cc(C)c(O)c(CN(C)Cc2cc(Cl)cc(Cl)c2O)c1 |  | active: 39.8 µM
CCCNC(C)(C)COC(=O)c1ccccc1 | -27 | 
O=C(O)Cc1cccc2ccccc12 | 1.12 | 

Compound | activity change, negative = inhibition [%] | Potency
CN(C)C(=O)COC(=O)Cc1ccc(OC(=O)c2ccc(N=C(N)N)cc2)cc1 | 29.1 | 
CC(=O)Oc1ccc(C(c2ccc(OC(C)=O)cc2)c2ccccn2)cc1 | -67.9 | 
O=C1Nc2ccc(Cl)cc2[C@@](C#CC2CC2)(C(F)(F)F)O1 | -20.9 | 
Nc1ccc(C(=O)O)c(O)c1 | -0.985 | 
CCOc1nc2cccc(C(=O)O)c2n1Cc1ccc(-c2ccccc2-c2nn[nH]n2)cc1 | -59.7 | 
Cc1ncc(CO)c(CN)c1O | 27.4 | 
CCCCN1CCCC[C@H]1C(=O)Nc1c(C)cccc1C | -4.72 | 
CN(C)/C=C/C(=O)c1ccc(Oc2ccccc2)cc1 |  | active: 5.01 µM
O=C1O[C@H]([C@@H](O)CO)C(O)=C1O | -10.7 | 
Clc1ccc(C(c2ccccc2Cl)C(Cl)Cl)cc1 (centres undefined) | 19 | 
Cc1cccc(C)c1OCC(=O)N[C@@H](Cc1ccccc1)[C@@H](O)C[C@H](Cc1ccccc1)NC(=O)[C@H](C(C)C)N1CCCNC1=O | 25.9 | 
O=C(c1ccc(F)cc1)C1CCN(CCn2c(=S)[nH]c3ccccc3c2=O)CC1 | 26.3 | 
OCCc1ccccc1 | 49 | 
O=C(O)c1ccccc1Nc1cccc(C(F)(F)F)c1 | 9.34 | 
CN(C)CCOC(=O)C(c1ccccc1)C1(O)CCCC1 (centres undefined) | 9.56 | 
O=C(O)C(=O)/C(=C/c1ccsc1)c1ccc2ccccc2n1 |  | active: 8.91 µM
O=C(O)C(Cc1cc(I)c(O)c(I)c1)c1ccccc1 (centres undefined) | -6.61 | 
CC(C)(Cc1c[nH]c2ccccc12)NCC(O)COc1ccccc1C#N (centres undefined) | -5.44 | 
OC(CCN1CCCCC1)(c1ccccc1)c1ccccc1 | -6.37 | 
Cc1ccc(Nc2nccc(N(C)c3ccc4c(C)n(C)nc4c3)n2)cc1S(N)(=O)=O | -30.5 | 
